Source: article PMC12170509
No constants are given. Whether binding was seen depends on the method and setting. Binding seen in cells or lysates may run through a third protein. Some entries that bind do so weakly or less than the wild type. Tags and fused reporters may be left off the sequences shown.

Amino acid sequences for entries named in this document (tags omitted).
UniProt P42227: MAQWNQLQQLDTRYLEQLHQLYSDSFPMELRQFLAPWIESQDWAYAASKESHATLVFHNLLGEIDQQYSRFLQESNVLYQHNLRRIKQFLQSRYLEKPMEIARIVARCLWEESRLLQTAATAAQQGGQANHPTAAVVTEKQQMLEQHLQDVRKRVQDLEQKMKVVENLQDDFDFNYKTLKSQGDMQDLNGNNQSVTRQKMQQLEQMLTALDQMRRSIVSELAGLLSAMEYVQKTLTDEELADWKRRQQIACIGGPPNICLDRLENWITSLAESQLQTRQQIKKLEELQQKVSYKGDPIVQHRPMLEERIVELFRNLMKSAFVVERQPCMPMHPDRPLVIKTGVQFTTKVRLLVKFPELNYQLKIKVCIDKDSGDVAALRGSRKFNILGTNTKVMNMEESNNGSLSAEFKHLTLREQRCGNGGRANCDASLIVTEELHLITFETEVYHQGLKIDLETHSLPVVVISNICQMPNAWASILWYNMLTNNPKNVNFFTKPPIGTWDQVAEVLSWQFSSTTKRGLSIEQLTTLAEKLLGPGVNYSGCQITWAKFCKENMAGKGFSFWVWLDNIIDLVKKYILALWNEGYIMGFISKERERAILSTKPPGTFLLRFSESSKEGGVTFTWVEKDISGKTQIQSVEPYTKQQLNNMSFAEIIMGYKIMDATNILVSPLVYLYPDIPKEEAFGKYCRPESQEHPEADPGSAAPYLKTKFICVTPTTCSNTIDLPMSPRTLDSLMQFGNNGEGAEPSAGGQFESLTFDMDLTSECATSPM
UniProt Q04207: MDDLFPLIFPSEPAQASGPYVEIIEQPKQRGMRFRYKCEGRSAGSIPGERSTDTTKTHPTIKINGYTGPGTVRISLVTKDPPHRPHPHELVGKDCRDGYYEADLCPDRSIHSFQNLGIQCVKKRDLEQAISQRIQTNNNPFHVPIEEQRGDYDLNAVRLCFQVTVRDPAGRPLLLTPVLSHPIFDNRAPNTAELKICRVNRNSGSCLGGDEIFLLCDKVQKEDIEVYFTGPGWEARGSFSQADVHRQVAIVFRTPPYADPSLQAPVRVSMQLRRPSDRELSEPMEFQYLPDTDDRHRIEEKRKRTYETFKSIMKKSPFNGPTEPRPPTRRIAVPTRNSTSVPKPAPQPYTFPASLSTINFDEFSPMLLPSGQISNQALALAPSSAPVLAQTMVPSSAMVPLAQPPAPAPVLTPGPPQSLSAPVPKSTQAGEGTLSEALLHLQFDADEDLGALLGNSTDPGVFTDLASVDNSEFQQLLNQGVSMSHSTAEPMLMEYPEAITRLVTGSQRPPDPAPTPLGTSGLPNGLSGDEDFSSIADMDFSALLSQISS
UniProt P63208: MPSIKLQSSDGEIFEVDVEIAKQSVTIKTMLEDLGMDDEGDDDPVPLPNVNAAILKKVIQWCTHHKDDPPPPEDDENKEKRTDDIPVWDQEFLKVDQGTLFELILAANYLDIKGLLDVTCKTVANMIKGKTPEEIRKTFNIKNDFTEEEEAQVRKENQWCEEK

How the values were obtained:
c-Myc-tagged PDLIM2 = molecular target: T1, c-Myc-tagged PDLIM2 (UniProt Q8R1G6); experiment: co-IP; HEK293T transfected with the c-Myc-tagged bait (and Flag-tagged partner where given); whole cell extract in RIPA buffer; IP with anti-c-Myc agarose overnight, four washes; immunoblot; in some panels cells were first transfected with control siRNA or siRNA against Cullin 1, Skp1 or Fbxo proteins
T1 sequence: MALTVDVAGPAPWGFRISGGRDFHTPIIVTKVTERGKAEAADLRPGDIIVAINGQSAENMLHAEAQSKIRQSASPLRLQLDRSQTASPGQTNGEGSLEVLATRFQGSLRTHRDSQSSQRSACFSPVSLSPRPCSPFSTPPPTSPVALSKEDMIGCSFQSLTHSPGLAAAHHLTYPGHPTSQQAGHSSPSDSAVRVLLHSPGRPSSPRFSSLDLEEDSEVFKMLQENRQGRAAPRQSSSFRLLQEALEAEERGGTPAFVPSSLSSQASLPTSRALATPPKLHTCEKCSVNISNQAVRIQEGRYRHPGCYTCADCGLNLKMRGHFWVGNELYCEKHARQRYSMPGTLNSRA

[1] = molecular target: T2, Flag-tagged PDLIM2 (mouse) (UniProt Q8R1G6); experiment: co-IP; HEK293T transfected with Flag-PDLIM2; lysis in 50 mM Tris pH 8.0, 0.5% NP-40, 5 mM EDTA, 50 mM NaCl, 50 mM sodium fluoride; IP with anti-Flag; immunoblot with anti-Skp1
T2 sequence: T1 sequence

binding (c-Myc-tagged PDLIM2)	binding [1]	Substance
binds	–	Flag-tagged STAT3 (from UniProt P42227 1-770)
binds	–	Flag-tagged p65 (from UniProt Q04207 1-549)
–	binds	Skp1 (from UniProt P63208 1-163)
